Measurements: patent US20190248900A1
Positions count from the first letter of the chain named. Results are given in words; binding and its absence hold for the method and conditions named. Some binding calls cover weakened binding; strength is not graded here.

Protein sequences, listed by entry. Tags and fused reporters are not part of them. Lines headed by an entry give the natural chain unless they say otherwise; changes in a name come on top. Residues count along the entry.
UniProt Q15116: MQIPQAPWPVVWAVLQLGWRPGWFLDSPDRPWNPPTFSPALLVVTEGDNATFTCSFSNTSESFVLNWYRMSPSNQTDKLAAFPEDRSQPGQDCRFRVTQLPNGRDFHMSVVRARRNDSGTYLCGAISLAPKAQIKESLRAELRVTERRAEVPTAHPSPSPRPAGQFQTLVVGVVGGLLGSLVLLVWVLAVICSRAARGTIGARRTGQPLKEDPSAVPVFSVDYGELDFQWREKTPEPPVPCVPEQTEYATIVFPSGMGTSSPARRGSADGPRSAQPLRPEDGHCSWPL
human PD-1 (NM_005018.2) over-expressed on cells: residues 25-288 of Q15116
antigen PD1 (coated, construct not stated): residues 25-170 of Q15116
PD1-his (Catalog Number 10377-H08H, Sino Biological Inc.): residues 25-167 of Q15116

B1: PD1-49A2(A/2A11) (antibody, V domains shown)
VH: QVQLVESGGGVVQPGRSLRLSCAASGFTFRSYAMHWVRQAPGKGLEWVAVISYDGQDKYYADSVKGRFTISRDNSKNTLYLQMNSLRAEDTAVYYCTTTTFDSWGQGTLVTVSS
VL: DIVMTQTPLSLPVTPGEPASISCRSSQSLFDSDDGNTYLDWYLQKPGQSPRLLIYTLSHRALGVPDRFSGSGSGTDFTLKISRVAAEDVGLYYCLQRMGFPYTFGQGTKLEIK
B2: PD1-49A2(A/1F12) (antibody, V domains shown)
VH: B1 VH with S31N, D57H, G105S
VL: B1 VL with L9H, F30L, D33E, R51Q, A85E, V89S, L91I, L95M, M98I, G99E
B3: PD1-49A2(A/1H4) (antibody, V domains shown)
VH: B1 VH with R30P, S31I, Q56A, D57H
VL: DIVMTQSPLSLPVTPGEAASISCRSSQSLLDSEDGNTYLDWYLQKPGQSPQLLIYTLSHRASGVPDRFSGSGSGTDFTLKISRVEAEDSGIYYCMQRVEFPYTFGQGTKLDIK
B4: PD1-49A2(A/2B10) (antibody, V domains shown)
VH: B1 VH with R30L, S31V, Q56S, D57H
VL: B3 VL with S7T, A18P, E33D, E85A, S89V, I91L, Y102F
B5: PD1-49A2(A/2D7) (antibody, V domains shown)
VH: B1 VH with R30K, S31T, D57H
VL: DIVMTQTPLSLPVTPGEPASISCRSSQSLLDRDGGHTYVDWYLQKPGQSPRLLIYTLSHRALGVPDRFSGSGSGTDFTLKISRVEADNVGLYYCMQRIEFPFTFGQGTKVEIK
B6: PD1-45D6(A/3G1) (antibody, V domains shown)
VH: B1 VH with R30S, A40V, Q56N, T97V, T98P, D102E, S103Y, T108S, L109Q
VL: B3 VL with S7T, A18P, K80E, S89V, I91V, Y102F
B7: PD1-45D6(A/3H4) (antibody, V domains shown)
VH: B1 VH with R30S, A40V, Q56N, T97V, T98P, D102E, S103Y, T108S, L109Q
VL: B3 VL with S7T, A18P, L30F, E33D, P65S, Y102F
B8: PD1-45D6(A/3H6) (antibody, V domains shown)
VH: B1 VH with R30S, A40V, Q56N, T97V, T98P, D102E, S103Y, T108S, L109Q
VL: B3 VL with S7T, S89V, I91V, Y102F, D111E
B9: PD1-45D6(A/4C1) (antibody, V domains shown)
VH: B1 VH with R30S, Q56N, T97V, T98P, D102E, S103Y
VL: B3 VL with S7T, A18P, E33D, S89V, Y102F
B10: PD1-45D6(A/4C9) (antibody, V domains shown)
VH: B1 VH with R30S, Q56N, T97V, T98P, D102E, S103Y
VL: B3 VL with S7T, E85A, S89V, Y102F, D111E
B11: PD1-45D6(A/4D4) (antibody, V domains shown)
VH: B1 VH with R30S, Q56N, T97V, T98P, D102E, S103Y
VL: B3 VL with S7T, A18P, D76E, T78N, K80R, S89V, Y102F, L110V
B12: PD1-45D6(A/4H6) (antibody, V domains shown)
VH: B1 VH with R30S, Q56N, T97V, T98P, D102E, S103Y
VL: B1 VL with R51Q, L62S, A85E, L95M, M98V, G99E, Y102F
B13: PD1-45D6(A/5A6) (antibody, V domains shown)
VH: B1 VH with S31L, Y53H, Q56N, T97V, T98P, D102E, S103Y
VL: B3 VL with S7T, A18P, S89V, I91V, V98I, E99D
B14: PD1-45D6(A/5B12) (antibody, V domains shown)
VH: B1 VH with R30S, S31V, Q56N, T97V, T98P, D102E, S103Y
VL: B3 VL with S7T, S89V, Y102F, L110V, D111E
B15: PD1-45D6(A/5C8) (antibody, V domains shown)
VH: B1 VH with R30M, S31R, Q56N, T97V, T98P, D102E, S103Y
VL: B3 VL with A18P, S89V, I91V, Y102F
B16: PD1-45D6(A/5H9) (antibody, V domains shown)
VH: B1 VH with R30W, S31T, Q56N, T97V, T98P, D102E, S103Y
VL: DIVMTQTPLSLPVTPGEPASISCRSSQSLLDSDDGNTYLDWYLQKPGQSPQLLIYTLSHRASGVSDRFSGSGSGTDFTLEISRVEAEDVGVYYCMQRRDFPFTFGQGTKVEIK
B17: PD1-52E8 (antibody, V domains shown)
VH: QVQLVQSGGNLVQPGRSLRLSCAASGFTFDDYAMHWVRQAPGKGLEWVSGISWNSGTPGYADSVQGRFTISRDNAKNSLYLQMNSLRAEDTAVYYCARGHNYLDSSYYDYWGQGTLVTVSS
VL: SYELTQPLSLSVAPGQTARITCSGDALSKEYSYWYQQKPGQAPVLVMYKDSERPSGIPERFSGSSSGTTVTLTISGVQAEDEADYYCQSVDSSDTSVVFGGGTKLTVL
B18: PD1-74A01 (antibody, V domains shown)
VH: B1 VH with R30S, Q56S, D57N, A88S, T97V, T98P, D102E, S103Y, T108S, L109Q
VL: DIVMTQTPLSLPVTPGEPASISCRSSQSLLDRGGGHTYLDWYLQKPGQSPQLLIYTLSHRASGVPDRFSGSGSGTDFTLKISRVEAEDVGIYYCMQRKEFPLTFGPGTKLEIK
B19: PD1-74H12 (antibody, V domains shown)
VH: QVQLVESGGGVVQPGRSLRLSCAASGFTFSSYAMHWVRQAPGKGLEWVAVISYDGSNKYYADSVKGRFTISRDNSKNMLYLEMNSLRAEDTAVYYCVPTTFEYWGQGSQVTVSS
VL: DIVMTQTPLSLSVTPGEPASISCRSSQSLLDSDDGNTYLDWYLQKPGQSPQLLIYTLSHRASGVPDRFSGRGSHTDFTLTISSVEAEDVGVYYCMQRIHFPLTFGQGTRLEIK
B20: PD1-41C9 (antibody, V domains shown)
VH: B1 VH with V2M, R30S, Q56S, D57N, S85R, A88S, V110I
VL: B1 VL with P18A, F30L, D33E, R51Q, L62S, E111D

The binders below were run against antigen PD1 (coated, construct not stated) (UniProt Q15116) (assay: monoclonal scFv-phage ELISA on coated PD1 antigen).

| Binder | binding |
| --- | --- |
| B1 | binds |
| B2 | binds |
| B3 | binds |
| B4 | binds |
| B5 | binds |
| B6 | binds |
| B7 | binds |
| B8 | binds |
| B9 | binds |
| B10 | binds |
| B11 | binds |
| B12 | binds |
| B13 | binds |
| B14 | binds |
| B15 | binds |
| B16 | binds |

What follows are binders tested against PD1-his (Catalog Number 10377-H08H, Sino Biological Inc.) (UniProt Q15116) (assay: monoclonal scFv-phage ELISA on coated PD1 antigen).

| Binder | binding |
| --- | --- |
| B17 | binds |

These binders were tested against human PD-1 (NM_005018.2) over-expressed on cells (human) (UniProt Q15116) (assay: flow cytometry on cells expressing PD-1, drawn table).

| Binder | binding |
| --- | --- |
| B18 | binds |
| B19 | binds |

These binders were tested against antigen PD1 (coated, construct not stated) (UniProt Q15116) (assay: specificity ELISA, 1 ug/ml, OD490).

| Binder | binding |
| --- | --- |
| B20 | binds |

Each binder was assayed against cynoPD1 (assay: ELISA, 1 ug/ml).

| Binder | binding |
| --- | --- |
| B20 | binds |
| B17 | binds |

The binders below were run against antigen PD1 (coated, construct not stated) (UniProt Q15116) (assay: scFv-phage ELISA of optimisation clones, OD490).

| Binder | binding |
| --- | --- |
| B1 | binds |
